For the series, the system named is NOSNoc. The experiment in a line: NOSNoc activity, oxyhemoglobin spectrophotometric assay (kinetics and inhibition). The series is classed as biochemical, Nocardia species (NRRL 5646). Conditions: for Ki for L-NOHA as substrate relative to Ki for L-arginine as substrate: times higher / fold greater; for Km relative to that for L-arginine: Km of L-NOHA greater than Km of L-arginine. As to the method:
Assays for NOS activity were carried out using a Shimadzu 160 spectrophotometer by observing the increase in absorbance at 401 nm at 25° C. A typical sample assay contained 50 mM potassium phosphate buffer (pH 7.5), 4 μM oxyHb, 100 μM L-arginine of L-NOHA (for kinetic experiments), 100 μM NADPH, 1 mM CaCl2, 10 μM FAD, 10 μM FMN, 80 μM H4 B, 150 μM DTT and 0.1-2 μg enzyme in a final volume of 1 ml. For assays, the reference cuvette contained all components except for L-arginine or L-NOHA. All assays were initiated by adding enzyme.

As to `N=C(NCCC[C@H](N)C(=O)O)N[N+](=O)[O-]` [N^G -nitro-L-arginine], the “Ki for L-NOHA as substrate relative to Ki for L-arginine as substrate” value was “approximately 1.2 fold”.

On to `N=C(NO)NCCC[C@H](N)C(=O)O` [N^G -Hydroxy-L-arginine], for which the “Km relative to that for L-arginine” value is on record as “about 3 fold”. Besides, the “Km relative to that for L-arginine” value (listed as L-NOPHA) is on record as roughly 3 fold.

`CNC(=N)NCCC[C@H](N)C(=O)O` [N^G -methyl-L-arginine]: the “Ki for L-NOHA as substrate relative to Ki for L-arginine as substrate” value is reported as 0.6 fold.
